For two substances, binding results are on record in paper doi:10.1101/807271.

The chains behind the UniProt entries cited, without tags or fusion partners.
UniProt Q15796: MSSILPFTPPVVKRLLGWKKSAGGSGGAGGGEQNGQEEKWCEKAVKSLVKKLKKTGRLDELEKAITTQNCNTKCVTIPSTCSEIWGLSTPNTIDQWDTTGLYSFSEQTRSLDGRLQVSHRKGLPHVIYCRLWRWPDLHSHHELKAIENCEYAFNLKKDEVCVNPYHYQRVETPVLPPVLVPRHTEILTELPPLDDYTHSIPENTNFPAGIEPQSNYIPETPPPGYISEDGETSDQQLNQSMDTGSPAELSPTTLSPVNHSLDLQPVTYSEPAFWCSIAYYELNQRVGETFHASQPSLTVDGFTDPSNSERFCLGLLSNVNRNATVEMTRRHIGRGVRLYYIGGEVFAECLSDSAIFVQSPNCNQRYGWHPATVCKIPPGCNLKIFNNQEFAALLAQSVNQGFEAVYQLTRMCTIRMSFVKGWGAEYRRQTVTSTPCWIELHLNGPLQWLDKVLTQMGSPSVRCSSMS
UniProt Q62432: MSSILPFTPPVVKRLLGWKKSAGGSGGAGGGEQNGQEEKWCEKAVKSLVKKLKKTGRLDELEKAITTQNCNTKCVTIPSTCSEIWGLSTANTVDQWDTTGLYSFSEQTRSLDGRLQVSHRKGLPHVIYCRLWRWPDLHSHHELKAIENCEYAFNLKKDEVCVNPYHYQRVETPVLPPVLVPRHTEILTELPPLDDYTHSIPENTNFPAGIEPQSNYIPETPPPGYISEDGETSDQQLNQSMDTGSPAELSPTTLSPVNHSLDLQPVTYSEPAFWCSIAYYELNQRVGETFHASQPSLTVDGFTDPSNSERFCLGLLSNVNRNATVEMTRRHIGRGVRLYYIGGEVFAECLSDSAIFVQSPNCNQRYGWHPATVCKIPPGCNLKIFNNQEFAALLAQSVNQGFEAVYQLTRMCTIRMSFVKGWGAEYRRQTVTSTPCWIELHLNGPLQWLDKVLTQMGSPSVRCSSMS

The target of assay [1] is T1, SATB1 (Jurkat cells) (human (endogenous in Jurkat)) (UniProt Q01826).
T1 sequence: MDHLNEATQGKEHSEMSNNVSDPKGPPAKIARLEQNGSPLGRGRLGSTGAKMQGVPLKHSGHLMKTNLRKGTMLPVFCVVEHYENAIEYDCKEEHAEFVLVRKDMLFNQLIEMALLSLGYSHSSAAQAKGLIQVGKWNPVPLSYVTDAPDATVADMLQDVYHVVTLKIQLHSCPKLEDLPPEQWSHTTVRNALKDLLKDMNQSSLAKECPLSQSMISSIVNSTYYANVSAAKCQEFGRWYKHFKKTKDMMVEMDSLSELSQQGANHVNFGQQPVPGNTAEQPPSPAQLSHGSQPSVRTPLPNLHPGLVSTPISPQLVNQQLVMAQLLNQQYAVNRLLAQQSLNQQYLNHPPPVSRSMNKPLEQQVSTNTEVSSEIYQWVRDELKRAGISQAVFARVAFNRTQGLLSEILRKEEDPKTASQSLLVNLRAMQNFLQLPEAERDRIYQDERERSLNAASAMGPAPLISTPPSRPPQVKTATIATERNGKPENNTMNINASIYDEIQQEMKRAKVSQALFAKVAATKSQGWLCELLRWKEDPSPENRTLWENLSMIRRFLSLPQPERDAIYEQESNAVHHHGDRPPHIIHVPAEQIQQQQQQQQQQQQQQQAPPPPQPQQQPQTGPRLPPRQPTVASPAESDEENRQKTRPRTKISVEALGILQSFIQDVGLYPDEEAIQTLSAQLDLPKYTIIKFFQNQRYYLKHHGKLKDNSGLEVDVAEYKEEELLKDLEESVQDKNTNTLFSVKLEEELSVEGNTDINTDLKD
As to the kind of experiment: co-IP.

For assay [2], the target named is T2, SATB1 (mouse (endogenous in primary MGE cells)) (UniProt Q60611).
T2 sequence: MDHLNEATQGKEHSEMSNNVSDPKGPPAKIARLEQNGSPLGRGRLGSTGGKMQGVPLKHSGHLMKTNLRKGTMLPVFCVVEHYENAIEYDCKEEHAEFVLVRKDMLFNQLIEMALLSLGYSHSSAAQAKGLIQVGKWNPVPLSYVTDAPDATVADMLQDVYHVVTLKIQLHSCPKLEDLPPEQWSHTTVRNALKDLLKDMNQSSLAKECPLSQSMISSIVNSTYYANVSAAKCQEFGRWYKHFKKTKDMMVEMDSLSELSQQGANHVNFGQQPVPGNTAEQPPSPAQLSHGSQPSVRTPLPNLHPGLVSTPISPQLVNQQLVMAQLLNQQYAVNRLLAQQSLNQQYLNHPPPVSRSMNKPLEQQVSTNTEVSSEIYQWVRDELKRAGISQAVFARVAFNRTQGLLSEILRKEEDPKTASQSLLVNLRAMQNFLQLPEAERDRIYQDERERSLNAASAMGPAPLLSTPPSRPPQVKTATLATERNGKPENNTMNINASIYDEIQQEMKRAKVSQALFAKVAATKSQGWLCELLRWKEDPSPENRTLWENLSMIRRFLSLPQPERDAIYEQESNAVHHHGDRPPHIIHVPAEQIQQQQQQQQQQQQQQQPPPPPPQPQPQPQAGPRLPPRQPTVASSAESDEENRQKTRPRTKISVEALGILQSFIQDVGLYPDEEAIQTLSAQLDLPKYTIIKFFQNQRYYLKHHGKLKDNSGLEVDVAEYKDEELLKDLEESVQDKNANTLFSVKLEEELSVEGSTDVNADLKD
As to the kind of experiment: proximity ligation.

Results are given in words; binding and its absence hold for the method and conditions named. In cells and extracts the contact can be indirect. Some binding calls cover weakened binding; strength is not graded here.

On to “Smad2 (Jurkat cells) (from UniProt Q15796 1-467)”, for which the binding entry in assay [1] is “binds”.
Smad2 (from UniProt Q62432 1-467): in assay [2], the binding entry is listed as “binds”.
